These are yes or no findings as the source states them, for the method shown. Binding seen in cells or lysates may run through a third protein. A yes stands for co-enrichment or nearness to the bait. Other partners may have been found. Tags and fused reporters may be left off the sequences shown.
T1: Vipp1–GFP (Synechocystis Vipp1 tagged with green fluorescent protein at the C-terminus) (Synechocystis sp. PCC6803) (UniProt Q55707)
T1 sequence: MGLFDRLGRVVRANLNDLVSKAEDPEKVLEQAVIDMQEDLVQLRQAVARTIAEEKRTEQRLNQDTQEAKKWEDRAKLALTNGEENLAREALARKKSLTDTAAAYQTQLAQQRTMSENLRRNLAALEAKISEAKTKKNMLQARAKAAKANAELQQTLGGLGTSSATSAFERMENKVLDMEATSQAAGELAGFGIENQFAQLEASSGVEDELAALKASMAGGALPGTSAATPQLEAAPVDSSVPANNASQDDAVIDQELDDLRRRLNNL

B1: Protein translocase subunit SecA (protein, UniProt Q55709 1-932)
chain: MLKALFGDPNTRKLKKFQPYVAEVNLYEEDIEKLSDDELKYKTVEFREALDKARSDAETEEILDEILPEAFAVVREAGKRVLGMRHFDVQLLGGIILHKGQIAEMKTGEGKTLVATLPSYLNGLTGKGVHVVTVNDYLARRDAEWMGQIHRFLGLTVGLVQSGMNPEERKKNYACDITYTTNSELGFDYLRDNMSTAMIEVVQRPFNFCIIDEVDSILIDEARTPLIISGQVERPTEKYLQASDIAAQLEPEIHYEVDEKQRNVLMTDEGFEKAEQLLQTTDLFDKNDPWAHYIFNAIKAKELFLKDVNYIVRNGEVVIVDEFTGRIMVGRRWSDGLHQAIEAKERVEIQKESQTLATITYQNFFLLYPKLSGMTGTAKTEETELEKVYNLQVTITPTNRPSSRQDWPDVVYKNEEAKWKAVALECEELHQQGRPILVGTTSVEKSEVISRLLQSSGIHHNLLNARPENVERESEIVAQAGRKGAVTIATNMAGRGTDIILGGNSDYMARLKVREYLMPKIVRPEDDELGAGVTGWVSGREKPQGFGNQNGKKKVKTWQVSPDIYPTTISQETEDLLKKAVKFAVDQYGLQSLTELEAEDKLAIASEKGPTDDPVILKLREVYNQIRREYEVLTSAEHKEVVELGGLHVIGTERHESRRVDNQLRGRAGRQGDPGSTRFFLSLEDNLLRIFGGDRVAGLMNMFRVEEDMPIESKMLTGSLEGAQKKVETYYYDIRKQVFEYDEVMNNQRKAIYAERRRVLEGLDLKEQVLVYAEKTMDEIVDAYVNPELPPEEWDVENMLDKAKQFVYLLEDLTVEDLGDMTVWEMKTFFHEEVRKAYDLKETQVDKVRPGLMREAERYFILQQIDNLWREHLQSMEALRESIGLRGYGQKDPLIEYKQEGYEMFLEMMIDIRRNVVYSLFQFQPQQQPQAV
B2: Phosphoglycerate kinase (protein, UniProt P74421 1-401)
chain: MLSKQSIANLTEADLAGKRVFVRVDFNVPLDNGSITDDTRIRAALPTIKDLLSKGAKVILGSHFGRPKGKVVDSMRLTPVGDRLGELLGQPVVKCDDCIGAEVTAKIASLPNGGVALLENLRFHAGEEGNDAEFAKALAANADLYVNDAFGTAHRAHASTEGVTHFLSPNVAGYLIEKELQFLQGAIEAPKRPLVAIVGGSKVSSKIGVIETLLDKCDKLIIGGGMIFTFYKAQGLNTGKSLVEEDKLDLAKSLMAKAKEKGVEFLLPTDVVVADNFAPDANAQTVGVDAIPDGWMGLDIGPDSVKTFQDALAGCGTVIWNGPMGVFEFDKFAVGTEAIACSLAELTASGTVTIIGGGDSVAAVEKVGVAEKMSHISTGGGASLELLEGKVLPGIAALDDR
B3: Chaperone protein DnaK3 (protein, UniProt P73098 1-771)
chain: MGKVVGIDLGTTNSVVAVMEGGKPIVIANAEGMRTTPSVVGFNKEGELVVGQMGRRQAVLNPQNTFYGVKRFMGRRYTDLTPESKRVAYTIRRDDRDNIKVRCPRLKKDFAPEEISAMILRKLAEEASRYLGEKVTGAVITVPAYFNDSQRQATRDAGKIAGLEVLRIINEPTAASLAYGLDQGRIQKILVFDLGGGTFDVSVLEVGDGIFEVKATSGDTQLGGNDFDRRIVDWLAEKFLEAEKVDLRQDRQALQRLTEAAEKAKIELSGVGTTEINLPFITATEDGPKHLETQLSRSEFEDLCGDLVTRLQRPVKRVLKDAGLSPVQIDEVVLVGGGTRMPMVKGLVRSFIDREPNENVNPDEVVAIGAAIQAGILDGEVKDILLLDVTPLSFGLETIGGVMKKLLPRNTTIPVRKSDIFSTGENNQTVVEVHVLQGEREMASDNISLGRFKLSGIPPAPRGVPQVQVSFDIDANGILQVTARDKTTGREQSITVQGASILSEGEVNRMIQEAETFAAQDRERRERIEKRNSAKALTDQAQRRLKEVTLDFGSAFTVSYRRQVDALCSEILDSLEKDDERRLDRAQADLQDVLYELNREVRLQYDDKEEGFFEAIKKTFTGDFDDDDDYYNRRPAPRDDYRGGNDYGRYDDYNYNAPSRREAPMPRAGAGRGPSLSKDYRSTAYADWDQSRVTRQRPYQGESLGGTYDDRRSSPQDDYSRGDRQKDYDYRENAPSRSGRGGNGRYGERPAQPGRNAPLQNGWDDDDDDWF
B4: Argininosuccinate synthase (protein, UniProt P77973 1-400)
chain: MGRAKKVVLAYSGGVDTSVCIPYLMHEWGVEEVITLAADLGQGDELGPIQEKALRCGAVESLVIDGKEEFVKEYAFRSIQANALYENRYPLSTALARPLIAKMLVEAAEKYGADAVAHGCTGKGNDQVRFDISIMALNPNLKVLAPAREWKMSREETIAYGERYGVESPVKKSSPYSIDRNILGRSIEAGPLEDPMTEPTEEIYLMTKAIADTPDEPEYVDIGFEKGIPVSLNGVMLDPVTLVERLNEIAGNHGVGRLDMVENRVVGIKSREIYEAPALLVLIDAHRDLESLTQTADVTHYKNTVEEIYSQLIYRGLWYSPLKEALDAFIVKTQERVTGMVRVKFFKGNANVAGRKSDYSIYDAELATYGMEDQFDHKAAEGFIYIWGLPTKVWAQKMRG
B5: Thiol-specific antioxidant protein (sll0755) (protein, UniProt Q55624 1-200)
chain: MTEVLRVGQPAPDFTATAIVDQSFQTVKLSTYRGKYLVLFFYPLDFTFVCPTEIIAFSDRHSEFTALDTEVVGISVDSEFSHLAWIQTERKMGGIGNINYPLVSDLKKEISQAYNVLEPDAGIALRGLFIIDREGILQYATVNNLSFGRSVDETLRVLKAIRHVQSHPNEVCPVDWQEGDKTMIPDPEKAKTYFETVAEP
B6: Phytoene dehydrogenase (protein, UniProt P29273 1-472)
chain: MRVVIAGAGLAGLACAKYLADAGFTPVVLERRDVLGGKIAAWKDEDGDWYETGLHIFFGAYPNMLQLFKELDIEDRLQWKEHSMIFNQPEKPGTYSRFDFPDIPAPINGLVAILRNNDMLTWPEKIRFGLGLLPAIVQGQSYVEEMDKYTWSEWMAKQNIPPRIEKEVFIAMSKALNFIDPDEISATILLTALNRFLQEKNGSKMAFLDGAPPERLCQPLVDYITERGGEVHINKPLKEILLNEDGSVKGYLIRGLDGAPDEVITADLYVSAMPVDPLKTMVPAPWREYPEFKQIQGLEGVPVINLHLWFDRKLTDIDHLLFSRSPLLSVYADMSNTCREYSDPDKSMLELVLAPAQDWIGKSDEEIVAATMAEIKQLFPQHFNGDNPARLLKSHVVKTPRSVYKATPGRQACRPDQRTSVPNFYLAGDFTMQKYLGSMEGAVLSGKQCAQAIAADFNPQTVPPTREIVTVG
B7: Asn/Gln-tRNA amidotransferase subunit B (protein, UniProt P74215 1-495)
chain: MTATAVKTDYEAIIGLETHCQLNTASKIFCNCSTDFDSPPNTNVCPVCLGYPGVLPVLNEEVLAAAVKLGLAINGQIAPYSKFDRKQYFYPDLPKNYQISQFDLPIVEHGSLEIELVDKKTKEITRKTIGITRLHMEEDAGKLVHAGSDRLAGSTHSLVDFNRTGVPLLEIVSEPDLRTGQEAAEYAQSLRQLVRYLGISDGNMQEGSLRCDVNISVRPVGQKEFGTKVEIKNMNSFSAIQKAIEYEIERQIKAIADGEEIYQETRLWEEGSQRTISMRKKEGSSDYRYFPEPDLPPLEVSEQQKQTWFATLPELPSAKRARYEQKLGLSAYDARVLTEDRDVALYFEEAVNAGADPKAVANWVTQDIAAYLNNNRLTISGLALKPSALAELIDLITKGTISGKIAKDILPELLEKGGSPQKIIEARGLVQISDPDELTAIIQAVIADHPKELEKFRSGKGNMQGFFVGQVMKRTGGKADPKLTNQLIGKLLAQA
B8: Allophycocyanin alpha chain (protein, UniProt Q01951 1-161)
chain: MSIVTKSIVNADAEARYLSPGELDRIKAFVTGGAARLRIAETLTGSRETIVKQAGDRLFQKRPDIVSPGGNAYGEEMTATCLRDMDYYLRLVTYGVVSGDVTPIEEIGLVGVREMYRSLGTPIEAVAQSVREMKEVASGLMSSDDAAEASAYFDFVIGKMS
B9: Light repressed protein A homologue (protein, UniProt P74518 1-191)
chain: MKLLIQGNNITVTEAIHDYVEEKVERAVKHFQNLTTKVDVHLSVARNARITNKHKAEVTVYANGTVIRAQEGSENLYASIDLVADKIARQLRKYKERIQDKQHGNVKTSEIVEDKPVEENLIGDRAPELPSEVLRMKYFAMPPMAIEDALEQLQLVDHDFYMFRNKDTDEINVIYIRNHGGYGVIQPHQAS
B10: Chaperonin 1 (protein, UniProt Q05972 1-541)
chain: MAKSIIYNDEARRALERGMDILAEAVAVTLGPKGRNVVLEKKFGSPQIINDGITIAKEIELEDHVENTGVSLIRQAASKTNDVAGDGTTTATVLAHAIVKEGLRNVAAGANPISLKRGIDKATDFLVARIKEHAQPVGDSKAIAQVGAISAGNDEEVGQMIANAMDKVGQEGVISLEEGKSMTTELEITEGMRFDKGYISPYFVTDAERMEAVLEDPRILITDKKINLVQDLVPILEQVARQGKPLLIIAEDIEKEALATLVVNRLRGVLNVAAVKAPGFGDRRKQMLEDIATLTGGQVISEDAGLKLESATVDSLGSARRINITKDNTTIVAEGNEAAVKSRCEQIRRQIEETDSSYDKEKLQERLAKLAGGVAVIKVGAATETEMKDRKLRLEDAINATKAAVEEGIVPGGGTTLAHLAPQLEDWATGNLKDEELTGALIVARALPAPLKRIAENAGQNGAVISERVKEKEFNVGYNAASLEYVDMLAAGIVDPAKVTRSALQNAASIAGMVLTTECIVVDKPEKEKAPAGAPGGDFDY
B11: Elongation factor G1 (protein, UniProt P28371 1-695)
chain: MEKDLTRYRNIGIFAHVDAGKTTTTERILKLTGRIHKLGEVHEGESTMDFMEQEAERGITIQSAATSCFWKDHQLNVIDTPGHVDFTIEVYRSLKVLDGGIGVFCGSGGVEPQSETNWRYANDSKVARLIYINKLDRTGADFYRVVKQVETVLGAKPLVMTLPIGTENDFVGVVDILTEKAYIWDDSGDPEKYEITDIPADMVDDVATYREMLIETAVEQDDDLMEKYLEGEEISIDDIKRCIRTGTRKLDFFPTYGGSSFKNKGVQLVLDAVVDYLPNPKEVPPQPEVDLEGEETGNYAIVDPEAPLRALAFKIMDDRFGALTFTRIYSGTLSKGDTILNTATGKTERIGRLVEMHADSREEIESAQAGDIVAIVGMKNVQTGHTLCDPKNPATLEPMVFPDPVISIAIKPKKKGMDEKLGMALSKMVQEDPSFQVETDEESGETIIKGMGELHLDIKMDILKRTHGVEVEMGKPQVAYRESITQQVSDTYVHKKQSGGSGQYAKIDYIVEPGEPGSGFQFESKVTGGNVPREYWPAVQKGFDQSVVKGVLAGYPVVDLKVTLTDGGFHPVDSSAIAFEIAAKAGYRQSLPKAKPQILEPIMAVDVFTPEDHMGDVIGDLNRRRGMIKSQETGPMGVRVKADVPLSEMFGYIGDLRTMTSGRGQFSMVFDHYAPCPTNVAEEVIKEAKERQAAA
B12: Peroxiredoxin (sll1621) (protein, UniProt P73728 1-189)
chain: MTPERVPSVVFKTRVRDESVPGPNPYRWEDKTTEQIFGGKKVVLFSLPGAFTPTCSSNHLPRYEQLFEEFQALGVDDIICLSVNDAFVMFQWGKQIGADKVKLLPDGNGEFTRKMGMLVEKSNLGFGMRSWRYSMFVNDGKIEKMFIEPEFGDNCPVDPFECSDADTMLAYLKGAEAPGVSEPVKAFVG

Target: T1, Vipp1–GFP (Synechocystis Vipp1 tagged with green fluorescent protein at the C-terminus) (Synechocystis sp. PCC6803)
Assay: affinity purification with mass spectrometry; anti-GFP microbeads (μMACS column) on lysate of HL-exposed (600 μE m^−2 s^−1) Synechocystis vipp1–gfp cells broken without detergent; bound fraction on 10% SDS-PAGE, bands identified by MS/MS; compared with LL vipp1–gfp and HL wild-type cells

Row | Binder | binding
1 | B1 | binds
2 | B2 | binds
3 | B3 | binds
4 | B4 | binds
5 | B5 | binds
6 | B6 | binds
7 | B7 | binds
8 | B8 | binds
9 | B9 | binds
10 | B10 | binds
11 | B11 | binds
12 | B12 | binds

From article PMC4297356
